In patent US6984500B2, “Method for detecting microorganisms and detection kit” (priority 2001, dated 2006):

Tests used:
[1] = system: A. fumigatus ATCC 26430; assay: Colorimetric microplate drug susceptibility test (WST-8 coloring reagent, sucrose YN broth, NaOH sensitizing solution); assay type: cell-based, Aspergillus Fumigatus; details: Colorimetry (present invention); 24 hours culture at 35° C.; absorbance at 630 nm; AMPH: absorbance equal to or less than negative control, ITCZ: IC80
Protocol: (§1) Aspergillus Fumigatus ATCC26430 was used.
The drug solutions so prepared were pipetted into a plate at 0.02 mL/well and dried to a solid under reduced pressure for 24 hours. A coloring reagent (containing 0.7 mmol/L WST-8, 0.0035 mmol/L 1-methoxy PMS, 0.5 mmol/L potassium ferricyanide, and 0.5 mmol/L of potassium ferrocyanide) was pipetted into each of the wells at 0.02 mL/well and they were again dried to a solid under reduced pressure for 24 hours.
6.7 g of YN Base (manufactured by Difco) and 20 g of sucrose were dissolved in about 900 mL of purified water, and the pH was adjusted to 7.0 with a 1N aqueous solution of sodium hydroxide. The solution was made up to 1000 mL with purified water and then filter sterilized using a 0.2 μm filter.
A tester strain was cultured using Sabouraud Dextrose Agar (manufactured by OXOID) at 35° C. for 7 days. 2 mL of sterile physiological saline containing 0.1% Tween 80 was added dropwise onto the culture medium so as to float spores. […] Dilution was carried out so that the absorbance at 530 nm was 0.09 to 0.11. […]
After 24 hours 0.02 mL of a 1.5 mol/L aqueous solution of sodium hydroxide was added to each well, and 5 minutes after the addition the absorbance at 630 nm was measured.
2. For ITCZ, the 80% inhibitory concentration (IC80) was determined.

[2] = system: A. fumigatus ATCC 26430; assay: NCCLS M-38P turbidity method (0.2 mL micro broth dilution) antifungal susceptibility test; assay type: cell-based, Aspergillus Fumigatus; details: repeated tests, determination time 46 to 50 hours
Protocol: as §1
A comparative example was carried out according to NCCLS M-38P (0.2 mL culture system micro broth dilution method).

Compound: C[C@@H]1[C@H](O)[C@@H](C)/C=C/C=C/C=C/C=C/C=C/C=C/C=C/[C@H](O[C@@H]2O[C@H](C)[C@@H](O)[C@H](N)[C@@H]2O)C[C@@H]2O[C@](O)(C[C@@H](O)C[C@@H](O)[C@H](O)CC[C@@H](O)C[C@@H](O)CC(=O)O[C@H]1C)C[C@H](O)[C@H]2C(=O)O [AMPH, Amphotericin B]
- MIC [1]: 0.5 to 1.0 µg/mL
- MIC [2]: 0.5 to 2.0 µg/mL
